In publication PMC10849675:
No constants are given. Whether binding was seen depends on the method and setting. In cells and extracts the contact can be indirect. Some binding calls cover weakened binding; strength is not graded here.

Chains of the proteins cited; added tags and fusions are not shown.
UniProt P25098: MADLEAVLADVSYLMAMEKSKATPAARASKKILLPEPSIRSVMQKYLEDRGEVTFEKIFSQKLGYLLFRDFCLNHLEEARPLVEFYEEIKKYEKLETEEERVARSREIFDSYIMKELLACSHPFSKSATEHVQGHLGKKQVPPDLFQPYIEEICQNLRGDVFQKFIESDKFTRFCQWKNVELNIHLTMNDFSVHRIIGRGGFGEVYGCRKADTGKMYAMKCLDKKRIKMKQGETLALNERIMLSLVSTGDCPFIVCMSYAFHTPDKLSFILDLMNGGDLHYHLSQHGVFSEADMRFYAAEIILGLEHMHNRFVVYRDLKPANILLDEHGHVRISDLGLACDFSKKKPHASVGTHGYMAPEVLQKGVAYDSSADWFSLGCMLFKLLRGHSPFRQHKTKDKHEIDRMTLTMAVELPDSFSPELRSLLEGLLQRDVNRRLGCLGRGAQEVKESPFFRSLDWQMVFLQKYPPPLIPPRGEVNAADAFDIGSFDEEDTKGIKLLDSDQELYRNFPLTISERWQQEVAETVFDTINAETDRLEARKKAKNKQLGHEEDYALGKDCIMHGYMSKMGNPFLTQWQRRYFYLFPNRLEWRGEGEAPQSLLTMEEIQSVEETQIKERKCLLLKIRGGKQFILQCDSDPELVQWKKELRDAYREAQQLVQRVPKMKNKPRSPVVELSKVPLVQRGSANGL

Columns and labels:
[1] = biological target: µ opioid receptor fused to sYFP2 (MOR-sYFP2) (rat) (UniProt P33535); assay: FRET or BRET; single-cell FRET in HEK293T cells transfected with MOR-sYFP2, GRK2-mTur2, Gαi-WT, Gβ1-WT and Gγ2-WT; agonist applied (methadone, morphine; 10 µM DAMGO for normalisation); room temperature
[2] = biological target: MOR-H297A mutant (in the MOR-GRK2 FRET assay) (rat) (UniProt P33535); assay: as above

Substance: GRK2-mTur2 (from UniProt P25098 1-689) (enzyme)
- binding [1]: binds
- binding [2]: binds
